Consider two substances from patent US12037414 (dated 2024).

Data set [1] is described as follows: solution-phase peptide synthesis; T3P/DIPEA in DMF. The note with it: coupling step.
Data set [2] in a line: general procedure: solution-phase peptide synthesis; T3P/DIPEA in DMF. The note with it: late stage modification step.

Regarding Boc-D-Arg-DMT-Lys(Boc)-Phe-NH2, the results for the step yield in data set [1] (run 1) and in data set [1] (run 2) were 17.5% and 22.2%, respectively.
Turning to “D-arginyl-2,6-dimethyl-L-tyrosyl-L-lysyl-L-phenylalaninamide”, the step yield was 99% in data set [2] and 88% corrected yield in data set [2] (corrected yield). The “purity (crude or final not stated)” value in data set [2] (HPLC) is listed as 98.0%.
